Here are results for 21 molecules from patent US20210139589A1 (APEXIGEN, published 2021).

B1: rabbit anti-VISTA antibody clone 2D12 (hybridoma) (antibody, V domains shown)
VH: LSLEESGGRLVTPGTPLTLTCTVSGIDLSSYAMGWVRQAPGKGLEYIGIISSSGSAFYASWAKGRFTISKTSSTTVDLKMTSPTTEDTATYFCARHYAGYTTPYYFNFWGPGTLVTVSS
VL: AYDMTQTPASVEVTVGGTVTIKCQASENIYSNLAWYQQKPGQPPKVLIYAASDLASGVPSRFKGSGSGTEYTLTISGVECADAATYYCQQGFSSSNVDNAFGGGTEVVVK
B2: rabbit anti-VISTA antibody clone 3H1 (VH) / 3L1 (VL) (antibody, V domains shown)
VH: QSLEESGGRLVTPGTPLTLTCTASGFFLNNYYMSWVRQAPGKGLEWIGLIYTSGSTLYANWAKGRFTISRTSTTVDLKITSPTTEDTATYFCARYDNNVDSWLDLWGQGTLVTVSS
VL: AYDMTQTPASVEVAVGGTVTIKCQASQSISSSYLAWYQQKPGQPPKLLIYVTSTLASGVSSRFKGSGSGTQFTLTISGVECADAATYYCQQGYSVSNIDNVFGGGTEVVVK
B3: rabbit anti-VISTA antibody clone 3H2 (VH) / 3L1 (VL) (antibody, V domains shown)
VH: QSLEESGGHLVTPGTPPTLTCTASGFFLNNYYMSWVRQAPGKGLEWIGLIYTSGSTLYANWAKGRFTISRTSTTVDLKITSPTTEDTATYFCARYDNNVDSWLDLWGQGTLVTVSS
VL: AYDMTQTPASVEVAVGGTVTIKCQASQSISSSYLAWYQQKPGQPPKLLIYVTSTLASGVSSRFKGSGSGTQFTLTISGVECADAATYYCQQGYSVSNIDNVFGGGTEVVVK
B4: rabbit anti-VISTA antibody clone 34C3 (antibody, V domains shown)
VH: QSVEESGGRLVTPGTPLTLTCTVSGFSLSSHAMSWVRQAPGKGLEWIGIIWTGGNTYYANWAKGRFTISKTSTTVDLKITSPIMEDTATYFCARYLNVEIGDVWGPGTLVTVSS
VL: QVLTQTPSSVSAAVGGTVTISCQSSQSVYKNNYLAWFQQKPGQPPKGLIYGASSLASGVSSRFKGSGSGTQFTLTISDVQCVDAATYYCQGCYYTAGSGDNYAFGGGTEVVVR
B5: rabbit anti-VISTA antibody clone 32B7 (antibody, V domains shown)
VH: QSVEESGGRLVTPGTPLTLTCTVSGFSLSSANMGWVRQAPGEGLEYIGLIDTDGTTYYASWAKGRFTISRTSTTVDLKMTSLTTEDTATYFCARLRTGYGDLWGPGTLVAVSS
VL: QAVVTQTPSSVSAAVGGTVTISCQSSQSVYNNNFLSWYQQKPGQPPKLLIYRASNLETGVSSRFSGSGSGTQFTLTISGVQCDDAATYYCAGYYSSGWYYTFGGGTEVVVK
B6: rabbit anti-VISTA antibody clone 14D8 (hybridoma) (antibody, V domains shown)
VH: QEQLEESGGGLVKPEGSLTLTCKASGFDLSSAYYMCWVRQAPGKGLEWIGCIATGSGSTYYASWAKGRFTISKTSSTTVTLQATSLTAADTATLFCARAPYYSYDGYDYALNLWGPGTLVTVSS
VL: IKMTQTPSSVSAVVGGTVTINCQASEDIVTYLAWYQQKPGHSPNLLIYAASTLASGVPSRFKGSGSGTQFTLTISDVQCDDAATYYCQQTYNYADTDNAFGGGTEVVVK
B7: rabbit anti-VISTA antibody clone 29G7 (hybridoma) (antibody, V domains shown)
VH: QSLEESGGRLVTPGTPLTLTCTASGFSLSSYAMGWVRQAPGKGLEWIGIIIVSGNIYYASWAKGQFTISKTSTTVDLKITSPTTEDTATYFCARGDGYTYGLWGQGTLVTVSS
VL: DIVMTQTPASVEAAVGGTVTIKCQASQSVYSRYLAWFQQKPGQPPKLLIYSASTLASGVSSRFKGSGSGTEYTLTISGVQCDDAATYYCQGTFYIPDYIDGFGGGTEVVVK
B8: rabbit anti-VISTA antibody clone 14F1 (hybridoma) (antibody, V domains shown)
VH: QSLEESGGDLVKPGASLKLTCTASGFSFSSSYYMCWVRQAPGKGLEWVACFYAGFSGSTYYASWAKGRFTISKTSSTTVTLQMTSLTAADTATYFCAKGASTYGYTGYDYAGDYFILWGPGTLVTVSS
VL: ALVMTQTPSSVSAAVGGTVTINCQASQNIYSNLAWYQQKPGQRPKLLIYAASNLASGVSSRFKGSGSGTEYTLTISDLECDDAATYYCQSAYYSSSADSYNAFGGGTEVVVK
B9: rabbit anti-VISTA antibody clone 41A11 (hybridoma) (antibody, V domains shown)
VH: QSLEESGGDLVKPGASLKLTCTASGFSFSSSYYMCWVRQAPGKGLEWIGCFYAGFSGGTYYASWAKGRFTISKTSSTTVTLQMTGLTAADTATYFCAKGANTYGYTGYDYAGDYFTLWGPGTLVTVSS
VL: ALVMTQTPSSVSAVVRGTVTINCQASQNIGSNLAWYQQKPGQRPKLLVYAASNLESGVPSRFKGSGSGTEFTLTISDLECDDAATYYCQSAYYSSVDSYNTFGGGTEVVVK
B10: rabbit anti-VISTA antibody clone 3A5 (hybridoma) (antibody, V domains shown)
VH: LEQSGGGAEGGLVKPGGSLDLCCKASGFSLSSENWICWVRQAPGKGLEWIGCICGANGGSAYHANWVNGRFTLSRDIDQSTDCLHLNSLTASDTAMYYCARAAGVSNAYYFDLWGPGTLVTVSS
VL: DVVMTQTPSSVSAAVGGTVTIKCQASQYIYINLAWYQQKPGQRPKLLIYDASDLASGVPSRFKGSRSGTEFTLTISDLECADAATYYCQCTYGGSTYGNAFGGGTEVVVK
B11: rabbit anti-VISTA antibody clone 5C12 (antibody, V domains shown)
VH: QSVEESGGRLVAPGTPLTLTCAVSGFSLSSYDMSWVRQAPGKGLEYIGVIGTGSTGPYYTSWAKGRFTISKTSTTVDLKITSPTTEDTATYFCARGWVKLDLWGPGTPVTVSS
VL: QVLTQTPSPVSAAVGGTVTINCHSSQSVYNDNYLSWFQQKPGQPPKLLIYQASNLASGVPSRFKGSGSGTPFTLTIYDLECGDAATYYCAGGYNIGDSYSAFGGGTEVVVQ
B12: rabbit anti-VISTA antibody clone 19B5 (antibody, V domains shown)
VH: QSVEESGGRLVTPGTPLTLTCTVSGFSLSSYWMSWVRQAPGEGLEWIGTIYTDGHTYYAKWAKGRFTISKTSTTVDLKMTSLTTADTATYFCARPWGVWGPGTLVTVSL
VL: QVLTQTPSPVSAAVGGTVTISCQSSESVYSNNRLSWFQQKPGQPPKLLIYQASKLASGVPSRFSGSGSGTQFTLTISGVQCDDAATYYCLGGYDCSSADCDTFGGGTEVVVR
B13: rabbit anti-VISTA antibody clone 2H2 (VH) / 2L3 (VL) (antibody, V domains shown)
VH: QSVEESGGRLVTPGTPLTLTCTASGFSLSDYAMTWVRQAPGKGLEYIGIISAGGYTYYASWATGRFTISKTSTTVDLKIPSPTAEDAATYFCARVGYADSSDIYKGFYLWGPGTLVTVSS
VL: DVVMTQTPASVSEPVGGTVTIKCQASESISNYLAWYQQKPGQPPKLLIYLASTLASGVPSRFEGSRSGTEFTLTISDLECADAATYYCHCTDSIINYNFGGGTEVVVK
B14: rabbit anti-VISTA antibody clone 2H4 (VH) / 2L3 (VL) (antibody, V domains shown)
V domain 1: QSVEESGGRLVTPGTPLTLTCTASGFSLSDYAMTWVRQAPGKGLEYIGIISAGGYTYYASWATGRFTISKTSTTVDLKIPSPTAEDAATYFCARVGYADSSDIYKGFYLWGPGTLATVSS
V domain 2: DVVMTQTPASVSEPVGGTVTIKCQASESISNYLAWYQQKPGQPPKLLIYLASTLASGVPSRFEGSRSGTEFTLTISDLECADAATYYCHCTDSIINYNFGGGTEVVVK
B15: rabbit anti-VISTA antibody clone 9A3 (antibody, V domains shown)
VH: QSVEESGGRLVTPGTPLTLTCTASGFSLSDYAMTWVRQAPGKGLEYIGIISAGGYTYYASWATGRFTISKTSTTVDLKIPSPTAEDAATYFCARVGYADSSDIYKGFYLWGPGTLVTVSS
VL: DVVMTQTPASVSEPVGGTVTIKCQASESISNYLAWYQQKPGQPPKLLIYLASTLASGVPSRFEGSRSGTEFTLTISDLECADAATYYCHCTDSIINYNFGGGTEVVVK
B16: rabbit anti-VISTA antibody clone 10D4 (antibody, V domains shown)
VH: QSVEESGGRLVTPGTPLTLTCTVSGFSLISYWMIWVRQAPGEGLEWIGFINTGGSAYYASWAKGRFTISRTSTTVDLKMTSLTTEDTATYFCARARYDSYITGDLWGPGTLVTVSS
VL: AVLTQTPSPVSAAVGGTVSISCQSSKSVSDNNWLSWYQQKPGQRPKLLIFYASTLASGVPSRFKGSGSGTQFTLTISDVQCDDAATYYCAGAYTNYNDNAFGGGTEVVVK
B17: rabbit anti-VISTA antibody clone 3A9 (antibody, V domains shown)
VH: QSVEESGGRLVTPGTTLTLTCTVSGFSLSLYYMSWVRQAPGKGLEWIGMTYTGGSAYYASWAKGRFTISQTSTTVDLKMTTLTVADTATYFCVRGYLADYYGDRDNLWGPGTLVTVSS
VL: IVMTQTPSSKSVPVGDTVTINCQASESVFSDDRLAWYQQKPGQPPKLLIYRASNLASGVPSRFSGSGSGTQFTLTINDVVCDDAATYYCAGYKGDSTDGVAFGGGTEVVVK
B18: rabbit anti-VISTA antibody clone 1H1 (VH) / 1L2 (VL) (antibody, V domains shown)
VH: QEQLVESGGGLVQPGGSLKLSCKASGFGFSSYGVSWVRQDPGKGLEWIGYIDPVLGSAAYATWVNGRFTISSHNAQNTLYLQLNSLTAADTATYFCARAGYPGYGYATNFNLWGPGTLVTVSS
VL: ALVMTQTPSSVSAAVGGTVTINCQASQNIYSNLAWYQQKPGQRPKLLIYGASNLESGVPSRFKGSGSGIEYTLTISDLECDDAATYYCQTNYYSHSAPFGGGTEVVVK
B19: rabbit anti-VISTA antibody clone 1H4 (VH) / 1L2 (VL) (antibody, V domains shown)
VH: QEQLVESGGGLVQPGGSLKLSCKAPGFDFSSYGVSWVRQDPGKGLEWIGYIDPVLGSAAYATWVNGRFTISSHNAQNTLYLQLNSLTAADTATYFCARAGYPGYGYATNFNLWGPGTLVTVSS
VL: ALVMTQTPSSVSAAVGGTVTINCQASQNIYSNLAWYQQKPGQRPKLLIYGASNLESGVPSRFKGSGSGIEYTLTISDLECDDAATYYCQTNYYSHSAPFGGGTEVVVK
B20: rabbit anti-VISTA antibody clone 5H2 (VH) / 5L3 (VL) (antibody, V domains shown)
VH: QSLEESGGRLVTPGTPLTLTCTVSGIDLSSYAMAWVRQAPGEGLEWIGTISSSGHTYYPTWVKGRFTISKPSSTTVDLRMTSPTTEDTATYFCARGHYGYFGTVFALWGPGTLVTVSS
VL: DIVMTQTPSSVSAAVGGTVTINCQASESIQTYLAWYQQKPGQPPKLLIYDASDLASGVPSRFSGSGSGKQFTLTISGVQCDDAATYYCQNYYFSTNSNYGDVFGGGTEMVVK
B21: rabbit anti-VISTA antibody clone 18D3 (antibody, V domains shown)
VH: QSVEESGGRLVTPGTPLTLACTVSGIDLSTNVMSWVRQAPGKGLEWIGIIFDSDITYYANWAKGRFTISKTSTTVDLKFTSPTTEDTATYFCARYDTYGYSYSIDLWGPGTLVTVSS
VL: AYDMTQTPASAEVAVGGTVTINCQASEDIYNLLAWYQQKPGQRPKLLIYRASTLASGVSSRFKGSGSGTDYTLTISGVQCDDAATYYCQQGHSSRNVDNAFGGGTEVVVK

No constants are given. Whether binding was seen depends on the method and setting. Some entries that bind do so weakly or less than the wild type.

The experiment deals with T1, VISTA (antigen of the hybridoma screening ELISA) (UniProt Q9H7M9).
T1 sequence (looked up): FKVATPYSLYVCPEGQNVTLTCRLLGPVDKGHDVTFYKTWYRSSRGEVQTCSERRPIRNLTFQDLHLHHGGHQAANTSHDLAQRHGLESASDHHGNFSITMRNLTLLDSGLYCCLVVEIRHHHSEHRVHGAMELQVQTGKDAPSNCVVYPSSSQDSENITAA
In words: ELISA binding assay, hybridoma screen.
With B1, the binding result is “binds”.

Take B2: the binding result is listed as “binds”.

As for B3, the binding entry is given as “binds”.

Regarding B4, the binding entry is given as “binds”.

Turning to B5, the binding entry was “binds”.

On to B6, for which the binding result is “binds”.

In the case of B7, the binding entry is “binds”.

Turning to B8, the binding entry was “binds”.

As to B9, the binding result is listed as “binds”.

As for B10, the binding entry is “binds”.

In the case of B11, the binding entry is on record as “binds”.

As to B12, the binding result is “binds”.

For B13, the binding entry is on record as “binds”.

On to B14, for which the binding entry is “binds”.

Regarding B15, the binding result is “binds”.

B16: the binding result is “binds”.

For B17, the binding entry was “binds”.

B18: the binding result was “binds”.

Regarding B19, the binding entry was “binds”.

Consider B20, for which the binding entry is given as “binds”.

As to B21, the binding result is recorded as “binds”.
